Measurements reported in patent publication US20080096967A1, “Formulations for Injection of Catecholic Butanes, Including Ndga Compounds, Into Animals” (priority 2005, published 2008).
Further values from the same series stand in other lists.

Assay: Solubility of M4N in water-soluble organic solvents (Table 20, visual inspection)
Assay type: physicochemical
Experimental: A 100 mL solution of M4N at a concentration of about 25 mg/mL in PEG 300 was made as follows. About 100 mL of PEG 300 were added to a glass beaker containing a stir bar. The beaker was placed on a magnetic plate and the stir bar was set to stir at medium speed. About 2.5 g of M4N were slowly added to the PEG 300 in the center of the beaker with the aid of a spatula to prevent M4N from sticking to the beaker wall. The M4N/PEG 300 mixture was stirred for 24 hr or until all M4N had dissolved or was uniformly suspended without any clumps being present. The M4N/PEG 300 mixture was optionally heated at about 60° C. for about 30 min. (or longer if a larger volume of solution was desired, for example, 1 hr at 60° C. for 500 mL of the M4N/PEG 300 mixture), or longer as needed to ensure complete dissolution of M4N. […] If crystals formed, the M4N/PEG 300 solution could be heated again at 60° C. for about 1 hr, with stirring, on a hot magnetic plate until all M4N was dissolved back in solution. The final M4N/PEG 300 solution was stored at room temperature and was kept protected from light. This process may be scaled up or down to obtain the requisite volume or concentration of M4N. Formulations containing M4N in other PEGs may be similarly made, such as, for example, by substituting PEG 300 in the process described above with PEG 400 or PEG 400 monolaurate.
This process may be scaled up or down to obtain the requisite volume or concentration of M4N and the heating temperature may be increased or decreased to achieve dissolution of M4N. Formulations containing M4N in other water-insoluble lipids combined with non-ionic surfactants, ionic surfactants or water-soluble organic solvents may be similarly made, such as, for example, by substituting sesame oil or Tween® 20 in the process described above with corn oil, olive oil, soybean oil, peppermint oil, Tween® 80, d-alpha-tocopheryl polyethylene glycol 1000 succinate (TPGS), lecithin, PEG 300, PEG 400, PEG 400 monolaurate, glycerol, polyvinylpyrrolidone (“PVP”), propylene glycol (“PG”), or other solubilizing agents, and combinations thereof.

[1] = Propylene Glycol 100%, M4N 1 mg/mL
[2] = Propylene Glycol 100%, M4N 10 mg/mL
[3] = Propylene Glycol 100%, M4N 20 mg/mL

Compound: COc1ccc(C[C@@H](C)[C@@H](C)Cc2ccc(OC)c(OC)c2)cc1OC [Formulation M4N, meso-1,4-bis(3,4-dimethoxyphenyl)-2,3-dimethylbutane]
- Dissolution After Rotation (40% Propylene Glycol, 10% Ethanol, M4N 10 mg/mL): N
- Dissolution After Rotation (Ethanol 100%, M4N 1 mg/mL): Y
- Dissolution After Rotation (Ethanol 100%, M4N 10 mg/mL): N
- Dissolution After Cool-Down (Glycerol 100%, M4N 1 mg/mL): N
- Dissolution After Rotation (Glycerol 100%, M4N 1 mg/mL): N
- Dissolution After Cool-Down (Glycerol 100%, M4N 10 mg/mL): N
- Dissolution After Rotation (Glycerol 100%, M4N 10 mg/mL): N
- Dissolution After Cool-Down (Glycerol 100%, M4N 20 mg/mL): N
- Dissolution After Rotation (Glycerol 100%, M4N 20 mg/mL): N
- Dissolution After Rotation (PEG 300 33%, M4N 10 mg/mL): N
- Dissolution After Cool-Down (PEG 300 100%, M4N 25 mg/mL): Y
- Dissolution After Rotation (PEG 300 100%, M4N 25 mg/mL): N
- Dissolution After Cool-Down (PEG 300 100%, M4N 30 mg/mL): Y
- Dissolution After Rotation (PEG 300 100%, M4N 30 mg/mL): N
- Dissolution After Cool-Down (PEG 300 100%, M4N 40 mg/mL): Y
- Dissolution After Rotation (PEG 300 100%, M4N 40 mg/mL): N
- Dissolution After Cool-Down (PEG 300 100%, M4N 50 mg/mL): Y
- Dissolution After Rotation (PEG 300 100%, M4N 50 mg/mL): N
- Dissolution After Cool-Down (PEG 300 100%, M4N 100 mg/mL): N
- Dissolution After Rotation (PEG 300 100%, M4N 100 mg/mL): N
- Dissolution After Rotation (PEG 400 5%, M4N 10 mg/mL): N
- Dissolution After Cool-Down (PEG 400 100%, M4N 25 mg/mL): Y
- Dissolution After Rotation (PEG 400 100%, M4N 25 mg/mL): N
- Dissolution After Cool-Down (PEG 400 100%, M4N 30 mg/mL): Y
- Dissolution After Rotation (PEG 400 100%, M4N 30 mg/mL): N
- Dissolution After Cool-Down (PEG 400 100%, M4N 40 mg/mL): Y
- Dissolution After Rotation (PEG 400 100%, M4N 40 mg/mL): N
- Dissolution After Cool-Down (PEG 400 100%, M4N 50 mg/mL): Y
- Dissolution After Rotation (PEG 400 100%, M4N 50 mg/mL): N
- Dissolution After Cool-Down (PEG 400 100%, M4N 100 mg/mL): N
- Dissolution After Rotation (PEG 400 100%, M4N 100 mg/mL): N
- Dissolution After Cool-Down (PEG 400 monolaurate 100%, M4N 20 mg/mL): Y
- Dissolution After Cool-Down (PEG 400 monolaurate 100%, M4N 50 mg/mL): Y
- Dissolution After Rotation (PVP 15%, M4N 1 mg/mL): N
- Dissolution After Rotation (PVP 15%, M4N 10 mg/mL): N
- Dissolution After Cool-Down [1]: Y
- Dissolution After Rotation [1]: N
- Dissolution After Cool-Down [2]: Y
- Dissolution After Rotation [2]: N
- Dissolution After Cool-Down [3]: Y
- Dissolution After Rotation [3]: N
